PubChem BioAssay AID504784 – Drosophila RNAi Screening Center, 2011

Test: 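Genome-wide knock-down for genes giving too much or too little stored lipid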 (primary screen)
Cells: Drosophila Kc167 embryonic cells
Reagent: long dsRNA against Drosophila genes, about 250 ng dsRNA per well
Time to read-out: 4 days
Treatment: cells fed 400 µM oleic acid bound to BSA
Detection: 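Microscope images give a droplet-to-nucleus area ratio, taken as log and converted to a screen-wide B-score; higher values mean greater lipid storage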
Scale: droplet/nuclear area B-score: higher = more stored lipid (overstorage)
The deposit covers about 17,000 reagents; below is a random part of those with a known target gene and a result. 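Each column is one replicate's B-score; the combined score over replicates was not deposited, so single values may mislead.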 A plus sign joins genes that one reagent is predicted to hit.

gene	amplicon	droplet/nuclear area B-score, replicate 1	droplet/nuclear area B-score, replicate 2	droplet/nuclear area B-score, replicate 3
CG13510 (GeneID 37596)	DRSC04152	1.91	-1.1	
CG16812 (GeneID 34722)	DRSC02519	1.48	-0.334	
CG33463 (GeneID 2768844)	DRSC22915	-1.16	0.947	
CycB (GeneID 37618)	DRSC04605	-0.338	0.239	
CG12692 (GeneID 31372)	DRSC17881	-3.61	-1.04	
CG6638 (GeneID 38979)	DRSC10680	0.0994	-0.0381	
CG42720 (retired record) (GeneID 10178794)	DRSC22549	-0.433	0.242	
Met75Ca + Met75Cb	DRSC09549	2.64	-0.0264	
Met75Ca + Met75Cb	DRSC11221	-1.36	-0.108	
CG15170 (GeneID 35160)	DRSC02471	0.451	0.00573	
mRpS5 (GeneID 3355089)	DRSC21380	2.15	0.0762	
CG16734 (GeneID 41100)	DRSC15143	-0.313	0.717	
IFT20 + CG10395	DRSC22660	-1.07	0.122	
CG9747 (GeneID 43591)	DRSC16554	-1.85	-0.344	-0.818
CalpB (GeneID 39165)	DRSC11109	-0.14		
CG30010 (GeneID 246389)	DRSC05193	0.39	1	
amrt (GeneID 32342)	DRSC19378	-0.226	0.481	
CG14007 (GeneID 33799)	DRSC02339	1.05	2.06	
ND-30 (GeneID 38378)	DRSC08243	-0.254	2	
Su(fu) (GeneID 41565)	DRSC16871	0.00892	0.156	
CG13708 (GeneID 38582)	DRSC08317	1.93	0.829	
ClC-b (GeneID 36381)	DRSC07220	4	0.598	
CG31715 (GeneID 318909)	DRSC21607	1.01	-1.17	
CG6959 (GeneID 41434)	DRSC16151	1.54	2.94	
Atg4b (GeneID 41868)	DRSC15988	-0.855	1.05	
Tsp3A (GeneID 31244)	DRSC18656	-0.07	-0.362	
CG16959 (GeneID 39648)	DRSC10230	1.07	1.98	-0.0057
CG31086 + CG31323	DRSC14902	0.114	0.317	
CG3679 (GeneID 32591)	DRSC19346	-0.866	-0.39	-1.9
VhaPPA1-2 (GeneID 41806)	DRSC16176	-0.061	-0.535	
CG9686 (GeneID 31921)	DRSC18439	-0.453	-0.108	-1.17
dati (GeneID 43789)	DRSC17128	0.0529		
dati (GeneID 43789)	DRSC17153	-1.69	-1.06	
CG13339 (GeneID 36528)	DRSC06373	0.417	-1.85	

Entries listed so far whose gene name begins with A or a (2):
gene	amplicon	droplet/nuclear area B-score, replicate 1	droplet/nuclear area B-score, replicate 2	droplet/nuclear area B-score, replicate 3
amrt (GeneID 32342)	DRSC19378	-0.226	0.481	
Atg4b (GeneID 41868)	DRSC15988	-0.855	1.05	
